# Screening data, single-dose tests

Protein sequences, listed by entry. Tags and fused reporters are not part of them. Residues count along the entry.
UniProt P9WPC5, whole entry: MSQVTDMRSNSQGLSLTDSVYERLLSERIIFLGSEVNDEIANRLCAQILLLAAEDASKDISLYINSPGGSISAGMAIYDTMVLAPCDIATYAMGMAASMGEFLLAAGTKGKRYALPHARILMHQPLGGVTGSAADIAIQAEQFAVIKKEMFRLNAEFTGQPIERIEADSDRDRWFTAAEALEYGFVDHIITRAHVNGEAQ
UniProt P9WPC3, whole entry partner: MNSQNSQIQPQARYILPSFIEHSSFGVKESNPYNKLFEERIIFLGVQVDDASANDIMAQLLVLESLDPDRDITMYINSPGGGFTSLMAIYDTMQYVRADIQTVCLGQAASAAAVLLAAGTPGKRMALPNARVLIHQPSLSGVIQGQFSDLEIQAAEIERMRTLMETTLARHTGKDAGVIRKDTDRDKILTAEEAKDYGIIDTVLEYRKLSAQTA
UniProt Q4DA54, 1-478: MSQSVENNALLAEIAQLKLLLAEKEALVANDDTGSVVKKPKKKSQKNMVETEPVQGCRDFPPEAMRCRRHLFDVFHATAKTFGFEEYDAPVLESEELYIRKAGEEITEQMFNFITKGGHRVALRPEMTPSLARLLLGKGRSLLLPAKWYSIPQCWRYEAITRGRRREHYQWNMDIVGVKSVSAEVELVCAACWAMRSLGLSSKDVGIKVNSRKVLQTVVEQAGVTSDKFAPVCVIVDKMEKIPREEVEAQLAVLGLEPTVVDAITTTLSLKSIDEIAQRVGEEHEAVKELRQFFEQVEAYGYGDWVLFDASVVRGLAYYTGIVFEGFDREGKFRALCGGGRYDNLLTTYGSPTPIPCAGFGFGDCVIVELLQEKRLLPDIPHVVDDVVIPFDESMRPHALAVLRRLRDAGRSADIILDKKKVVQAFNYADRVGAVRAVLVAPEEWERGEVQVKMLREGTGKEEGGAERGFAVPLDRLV
UniProt P9WNZ1, whole entry: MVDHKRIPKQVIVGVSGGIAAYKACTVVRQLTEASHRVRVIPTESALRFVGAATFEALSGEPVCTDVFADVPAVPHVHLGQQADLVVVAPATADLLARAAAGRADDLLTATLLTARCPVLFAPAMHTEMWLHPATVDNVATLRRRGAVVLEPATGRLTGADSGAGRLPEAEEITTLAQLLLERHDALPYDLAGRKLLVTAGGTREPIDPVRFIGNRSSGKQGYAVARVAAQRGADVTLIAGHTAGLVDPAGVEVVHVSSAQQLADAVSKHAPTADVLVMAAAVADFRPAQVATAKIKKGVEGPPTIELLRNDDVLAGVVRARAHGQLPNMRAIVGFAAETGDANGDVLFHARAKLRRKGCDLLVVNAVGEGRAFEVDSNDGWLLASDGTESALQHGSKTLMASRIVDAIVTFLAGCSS

ClpP1P2: 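ClpP1P2, Mycobacterium tuberculosis (UniProt P9WPC5 and UniProt P9WPC3). Protease assay of ClpP1P2, read by the AMC dye that it sets free. Compounds at 50 µM. Higher reads as stronger inhibition, judged from the few compounds that gave an IC50. Most other retested compounds had strongly negative values. Size under these conditions: about 69,000 compounds, about 10 of them at 50% or above in at least one test.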
Toxoplasma: 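Assay of Toxoplasma gondii numbers, read through their beta-galactosidase reporter with a colour substrate. Tested at 10 µM. The record gives no direction; the compounds picked for IC50 retests had high values, so higher reads as fewer parasites. Of about 67,000 compounds tested this way, about 260 (0.38%) reached 50% or more in at least one test.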
Leishmania in macrophages: 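Cell assay of Leishmania donovani living inside macrophages; the read-out is not stated. Concentration: 30 µM. Direction is inferred from retests: higher values go with stronger inhibition. Of about 69,000 compounds tested this way, about 1,000 (1.5%) reached 50% or more in at least one test.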
TcHisRS: 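Enzyme assay of histidyl-tRNA synthetase; the read-out is not stated. Target: Histidine-tRNA ligase, Trypanosoma cruzi CL Brener (UniProt Q4DA54). Concentration: 30 µM. Direction is inferred from retests: higher values go with stronger inhibition. Of about 69,000 compounds tested this way, about 31 (0.045%) reached 50% or more in at least one test.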
CoaBC: 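Enzyme assay of CoaBC with a phosphate dye (Biomol Green) read at 650 nm. Target: Coenzyme A biosynthesis protein CoaBC, Mycobacterium tuberculosis (UniProt P9WNZ1). Compounds at 30 µM. Higher reads as stronger inhibition, judged from the few compounds that gave an IC50. Most strong results did not repeat in a second test. Size under these conditions: about 67,000 compounds, about 40 of them at 50% or above in at least one test.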

The filed quantity is “Percent Effect” (%). The record does not define 0% and 100%; most values in the screen are far below 50% and negative numbers occur (in some assays of this library far below -100). This is an unselected part of the compounds tested. Two or more numbers in one place are separate tests of the same structure; such repeats can differ widely. A dash means the value is not listed here; it may have been measured.

| SMILES | ClpP1P2 | Toxoplasma | Leishmania in macrophages | TcHisRS | CoaBC |
|---|---|---|---|---|---|
| `CCc1cnc(N2C[C@H]3C[C@H](C(=O)NC4CCC4)[C@@H](C2)O3)nc1` | -2.309 | - | - | 6.468 | 1.29 |
| `O=C(Cc1ccco1)N1C[C@H]2CCC[C@@]2(COCC2CC2)C1` | -8.368 | - | - | 10.31 | 2.217 |
| `Cc1nn(CCO)cc1CN1CCCN(C2CCCC2)CC1` | 3.487 | 4.756 | 15.01 | 6.404 | -7.097 |
| `CCN(C(=O)CN1CCn2c(C)nnc2C1)C1=CCCCC1` | 1.684 | 6.376 | 15.4 & -7.559 | -31.33 | -0.2545 |
| `CSCCc1ccc(NC(=O)NCc2ccnc(N(C)C)c2)cc1` | -12.99 | 17.37 | 16.46 | 2.053 | 2.632 |
| `OCc1ccc(-c2c(-c3ccccc3)ncn2CCN2CCOCC2)o1` | 3.087 | -7.719 | 15.77 | -1.676 | 12.5 |
| `CCCSc1nn(CCCN(C)C)c2nc3sc(C)c(CC)c3c(=O)n12` | -8.33 | -19.12 | -2.726 | 6.211 | 6.962 |
| `O=C(O)C(F)(F)F.O=C(O)C(F)(F)F.[H][C@@]12CN(Cc3ccc(OC)cc3)C[C@]1([H])OCCN2c1ncccn1` | - | -3.05 | 2.022 | - | - |
| `Cn1ccnc1C(=O)N[C@@H]1CN(CC2CCOCC2)[C@@H]2CCCO[C@@H]21` | -8.721 | - | - | 5.525 | 0.9901 |
| `Cc1c(C2CC2)n[nH]c1NC(=O)C1CCCN(C(=O)NCC(C)C)C1` (configuration not stated) | -7.071 | 4.202 | -5.498 | 8 | 1.453 |
| `O=C(Nc1ccccc1)N1C[C@H]2C[C@H](C(=O)N3CCOCC3)[C@@H](C1)O2` | -5.511 | - | - | 6.145 | 2.545 |
| `Cc1sc2nc(SC(C)c3nc(C(C)(C)C)no3)nc(N)c2c1C` (configuration not stated) | 4.237 | -0.8999 | -17.35 | 7.143 | 0 |
| `CC(C)N1C[C@@H](F)[C@@H](OCc2nc3ncccc3[nH]2)C1` | -3.146 | 5.288 | 40.5 | 3.261 | 2.87 |
| `[H][C@@]12C[C@@H](Oc3ccccc3)C[C@]1([H])CN(C(=O)c1cnn(CC)c1)C2` | - | -23.44 | -12.61 | - | - |
| `Clc1ccccc1OCCc1cc(C2CCNC2)n[nH]1` (configuration not stated) | 5.166 | - | - | 5.224 | 2.433 |
| `Cc1ccc(-c2noc(CN3CCOC(CN(C)C)C3)n2)cc1F` (configuration not stated) | 0.5161 | 0.3231 | 2.495 | 4.215 | -6.408 |
| `CC(C)n1nnnc1-c1ccc(NC(=O)C(C)(C)C#N)cc1F` | -2.823 | 6.627 | -3.98 | 7.772 | 8.763 & 24.74 |
| `NC(=O)C1CN(C(=O)Nc2ccccc2Oc2ccccc2Cl)CCO1` (configuration not stated) | -11.32 | -13.97 | 11.42 | 1.744 | 12.89 & 29.61 |
| `O=S(=O)(C1CC1)N1CCO[C@@H]2CN(Cc3cccs3)C[C@@H]2C1` | -1.444 | - | - | 4.908 | - |
| `Cc1cc(N2CCOCC(Cc3ccc4[nH]ccc4c3)C2)ncn1` (configuration not stated) | -3.362 | 4.336 | 16.65 | 2.281 | 4.821 |
| `O=C(NCCCO)Nc1cnc2cc(Cl)ccc2c1O` | -1.332 | 3.356 | 10.6 | 4.255 | -1.225 |
| `O=C(O)[C@@H]1CN(C(=O)c2ccc(F)c(F)c2)C[C@H]1c1cccc(F)c1` | 13.43 | 7.091 | 37.19 | 9.045 | 5.977 |
| `FC(F)(F)c1ccc(-c2c[nH]c([C@@H]3COCCN3)n2)cc1` | 0.0237 | 4.189 | 13.19 | -12.44 | 18.27 |
| `CN(C)C(=O)c1ccn(COc2ccccc2Cl)n1` | -1.821 | 1.68 | 4.723 | 3.097 | -6.075 |
| `Cc1cc(C(=O)N2CC(O)CO2)c2cccc(C)c2n1` (configuration not stated) | -0.6368 | -2.037 | 9.993 | 6.186 | -15.8 |
| `O=C(CN1CCCCC1Cn1cncn1)NCCOc1ccccc1` (configuration not stated) | -30.19 | -10.07 | 5.457 | 6.358 | 3.704 |
| `CN(C)CCN(C(=O)Cc1ccc2c(c1)OCCO2)C1CCN(C)CC1.O=C(O)CC(O)(CC(=O)O)C(=O)O` | - | 11.35 | 24.18 & 12.18 | - | - |
| `Cc1noc(C)c1CNCC1CCCN1c1cccnn1` (configuration not stated) | 4.142 | -20.38 | -3.957 | 4.906 | -4.103 |
| `COc1cc(CNCc2ccnc(N3CCCC3)c2)cc(OC)c1.Cl` | - | -3.208 | 49.5 | - | - |
| `CC(C)CN1CCC2(COCc3cnc(-c4ccccc4)nc32)C1` (configuration not stated) | -3.094 | - | - | 0 | 4.444 |
| `O=C(O)C(F)(F)F.[H][C@@]12CNC(=O)[C@H](C)[C@]1([H])CN(CCc1ccccc1)C2` | - | -10.73 | 0.1308 | - | - |
| `O=C(O)C(F)(F)F.O=S(=O)(C1CC1)N1CCC2(CC1)CN(Cc1nccs1)CCO2` | - | -5.14 | 7.297 | - | - |
| `CN(C)CCN1C[C@@H]2OCCN(Cc3cnn(C)c3)[C@@H]2C1` | 12.04 | - | - | 8.696 | 7.944 |
| `CC(C)Oc1cccc(CNC(=O)NC2(CO)CCCC2)c1` | -0.9052 | -14.46 | 1.982 | 1.149 | -3.6 |
| `CC(=O)N1CCC2(CC1)CC[C@@]1(C(=O)N(C)C)CN(S(C)(=O)=O)C[C@@H]21` | 15.81 | - | - | -4.237 | 8.37 |
| `O=C(c1ccccc1-c1ccccc1)N1CCOC2(CNCCOC2)C1` (configuration not stated) | 1.807 | -6.001 | 41.1 | 2.5 | -4.904 |
| `N[C@H]1CN(S(=O)(=O)c2ccccc2)C[C@@H]1C1CC1` | -12.46 | -8.465 | -25.12 | 4.545 | 4.716 |
| `Cc1noc(C)c1CN1CCCC(CN(C(=O)OC(C)(C)C)C(C)C)C1` (configuration not stated) | -4.622 | -12.17 | 3.595 | -2.89 | -1.653 |
| `CN(Cc1cnn(C)c1)C(CO)c1cccc(Br)c1` (configuration not stated) | -6.092 | -4.726 | -30.34 | -6.098 | 2.911 |
| `O=C(Cc1ccccc1Cl)N1CCN(CC(O)COCCO)CC1` (configuration not stated) | -8.805 | 3.377 | 13.88 | 7.647 | 3.581 |
| `CCN(c1ccsc1C(=O)N1CCCCC1)S(=O)(=O)c1ccccc1` | -0.2607 | 13.91 | 1.615 | 4.327 | 5.216 |
| `O=C(NCC1(O)CCC1)c1c(O)cc(Cl)cc1Cl` | -0.9385 | - | 42.5 | 2.97 | -0.3645 |
| `CC(C)C(C)NC(=O)c1cccn1Cc1cccnc1` (configuration not stated) | -12.11 | -4.933 | -12.76 | 6.145 | -8.871 |
| `NS(=O)(=O)NCC1(c2ccccc2Br)CC1` | -8.618 | -0.8999 | 94.29 | 7.143 | 1.225 |
| `O=C(c1ccccc1)N1CCO[C@@H]2CNC[C@@H]21` | -4.896 | - | - | -2.21 | -0.7426 |
| `CC(C)(C)CC(=O)N1CC[C@@H]2[C@H](CC1)N(S(C)(=O)=O)CCS2(=O)=O` | 5.184 | - | - | -3.743 | 3.106 |
| `CN1CCCc2cc(CNC(=O)c3ccc(-n4cnnc4)cc3)ccc21` | 1.933 | 2.859 | 25.29 | 2.579 | -0.6211 |
| `CCNC(=O)NC1CN(Cc2ccccc2N(C)C)C[C@@H]1OC` (some centres not stated) | -12.98 | -8.517 | 34.62 | 0.4878 | 2.886 |
| `Cc1nsc(NCc2ccc(CS(=O)(=O)NC(C)C)cc2)n1` | 9.08 | -0.05348 | -13.62 | 17.24 | 1.768 |
| `Cc1nn(C)c(Cl)c1C1CCCN1C(=O)c1cnccn1` (configuration not stated) | -5.531 | -15.34 | 24.24 | 1.433 | 8.323 |
| `CC(C)N(C)CC(=O)N1CCCC(c2ccc(C(=O)O)cc2)C1` (configuration not stated) | -12.78 | -2.512 | 9.854 | -0.8264 | -17.11 |
| `COc1ccc(CCN2CCCC2Cn2nc(C)nc2C)cc1` (configuration not stated) | 3.899 | - | 22.93 | 14.29 | -2.314 |
| `CC(C)C(=O)NS(=O)(=O)c1ccc(C#N)cc1C(F)(F)F` | -8.725 | -22.65 | 30.67 | 5.814 | -2.193 |
| `Nc1cc(CCCNC(=O)NC2CC2)nn1-c1ccccc1` | 1.551 | 3.722 | -0.7159 | 6.612 | -4.478 |
| `Cc1ccccc1C(=O)NCC(=O)NCc1ccccn1` | 5.04 | 13.42 | -8.205 | 0 | 4.784 |

Repeated from the top, 6 entries:

| SMILES | ClpP1P2 | Toxoplasma | Leishmania in macrophages | TcHisRS | CoaBC |
|---|---|---|---|---|---|
| `CCc1cnc(N2C[C@H]3C[C@H](C(=O)NC4CCC4)[C@@H](C2)O3)nc1` | -2.309 | - | - | 6.468 | 1.29 |
| `O=C(Cc1ccco1)N1C[C@H]2CCC[C@@]2(COCC2CC2)C1` | -8.368 | - | - | 10.31 | 2.217 |
| `Cc1nn(CCO)cc1CN1CCCN(C2CCCC2)CC1` | 3.487 | 4.756 | 15.01 | 6.404 | -7.097 |
| `CCN(C(=O)CN1CCn2c(C)nnc2C1)C1=CCCCC1` | 1.684 | 6.376 | 15.4 & -7.559 | -31.33 | -0.2545 |
| `CSCCc1ccc(NC(=O)NCc2ccnc(N(C)C)c2)cc1` | -12.99 | 17.37 | 16.46 | 2.053 | 2.632 |
| `OCc1ccc(-c2c(-c3ccccc3)ncn2CCN2CCOCC2)o1` | 3.087 | -7.719 | 15.77 | -1.676 | 12.5 |

The values are deposited in ChEMBL (CHEMBL3988442, “University of Dundee, Small-Polar-MMV Screening Library” (2021)).